Test results reported in PubChem BioAssay AID493014 (National Center for Advancing Translational Sciences (NCATS), 2011).
Among all 340,000 compounds or so, about 170 (0.05%) were called active. This list was built around the results that the source calls inconclusive (neither active nor inactive); the mix of calls is not that of the screen. The call rests on the fitted dose curve; in most records, active means well fitted inhibition curve with a large enough effect in the signal ratio, with a control signal flat (not every such curve was filed as active); inconclusive means small, poorly fitted or top-dose-only effect, or effect the other way, or a change in a side signal; inactive means flat fitted curve, though single readings scatter; the % refers to the signal ratio. Potencies beside an inconclusive call are fits to weak or partial responses and may not hold up.

assay: qHTS Assay to Find Inhibitors of Chronic Active B-Cell Receptor Signaling; conditions: ABC-DLBCL IkBa-CBG/CBR reporter, luminescence ratio (green luciferase fused to IkBa over red control in TMD8 lymphoma cells), 4 h; activity change, negative = inhibition: at 46.1 µM (top of the series);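 on activity change, negative = inhibition: plate controls were basal doxycycline-induced cells for no effect and cells given 10 µM MG132 for full effect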
Method in brief: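 Cell line TMD8 (human ABC DLBCL), stably expressing tet-inducible CBG68-IkBa fusion and CBR; IMDM/0.5% FBS; cpd up to 46 uM; dox induction, 4 h, 37C/5% CO2; dual luminescence; green/red ratio; MG132 control.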
Potency means the concentration at half of the fitted maximal effect.

Row | Compound | activity change, negative = inhibition | Potency
1 | CC(C)(C)OC(=O)C[C@H]1C/C=C\C[C@@H](CC(=O)N(CCO)Cc2ccccc2)C(=O)N2CCC[C@H]2COC1=O | inconclusive: 2.15% | –
2 | Cc1cccc(CNc2ncnc3ccc(-c4ccc5c(c4)OCCO5)cc23)c1 | inconclusive: -6.9% | inconclusive: 18.4 µM [falling, single point]
3 | O=C(Nc1cccnc1)c1cccc(S(=O)(=O)N2CCc3ccccc32)c1 | inactive: -4.17% | –
4 | CCOC(=O)c1csc(N/N=C2\CCc3ccccc32)n1 | inconclusive: 2.16% | –
5 | O=C(N/N=C/c1c[nH]c2ccccc12)c1cc(Br)ccc1O | inconclusive: 215% | –
6 | N#Cc1ccc(C(=O)Nc2cccc(S(=O)(=O)NC3=NCCC3)c2)cc1 | inconclusive: -13.1% | –
7 | CCc1ccc(Nc2n[n+](-c3ccccc3)c(/C=C/c3ccccc3)s2)cc1 | inactive: -2.29% | –
8 | CCn1cc(/C=C/c2cc[n+](C)cc2)c2ccccc21 | inactive: 1.84% | –
9 | Cn1c(=O)c2c(nc(SCC(=O)NCC3CCCO3)n2C)n(C)c1=O (stereo unspecified) | inactive: 20.3% | –
10 | Cc1cc(C)cc(OCC(=O)N2CCc3ccccc3C2)c1 | inconclusive: 4.22% | –
11 | CCCn1nnc(NC(=O)c2cc(Br)ccc2OC)n1 | inconclusive: 1.52% | –
12 | O=C(Nc1cccc2cccnc12)c1cc(F)c(F)cc1Cl | inconclusive: 11.9% | –
13 | CCc1ccc(-c2cc(C(=O)N/N=C/c3ccccn3)[nH]n2)cc1 | inconclusive: 4.42% | –
14 | Cc1nc(-c2cccc(S(=O)(=O)N3CCC(C(=O)NCc4ccccc4)CC3)c2)no1 | inconclusive: 10.6% | –
15 | O=[N+]([O-])c1ccc(Sc2cccc3cccnc23)c([N+](=O)[O-])c1 | inconclusive: -1.62% | –
16 | COc1cccc(-n2cc(CNCc3c(C(=O)N(C)C)nc4ccc(Cl)cn34)cn2)c1 | – | inconclusive: 1.58 µM [rising, full curve]
17 | CC(Cc1cccnc1)NC(=O)c1ccccc1OC1CCN(S(C)(=O)=O)CC1 (stereo unspecified) | inconclusive: 4.76% | –
18 | O=C(Cn1cc[n+](CC(=O)c2ccccc2)c1)c1ccccc1 | inactive: 7.33% | –
19 | COc1cccc(OCC(=O)Nc2ccc(OC)c(OC)c2)c1 | inconclusive: 26.4% | –
20 | COc1ccc(-c2cc(NCCc3ccncc3)n3ncnc3n2)cc1 | inactive: 1.74% | –
21 | Cc1ccc(C(C(=O)NCc2ccco2)N(Cc2ccco2)C(=O)CNC(=O)c2ccco2)cc1 (stereo unspecified) | inconclusive: 6.7% | –
22 | FC(F)(F)c1nnc(-c2ccccc2)nc1Oc1ccccc1 | – | inconclusive: 29.1 µM [falling, single point]
23 | c1ccc(Nc2nc(N3CCCC3)nc(N3CCCC3)n2)cc1 | – | inconclusive: 25.9 µM [rising, single point]
24 | CSc1c(SCc2ccccc2)cnn(Cc2ccccc2)c1=O | inconclusive: 9.72% | –
25 | COc1ccc2oc(C(=O)N(Cc3ccco3)Cc3cccs3)c(C)c2c1 | inconclusive: 13.9% | –
26 | Cc1onc(-c2c(Cl)cccc2Cl)c1NC(=O)N(C)N | inconclusive: 0.819% | –
27 | O=C1CC2(CCN(C(=O)C3CC(=O)N(c4ccc(F)cc4)C3)CC2)Oc2ccccc21 (stereo unspecified) | inconclusive: -1.16% | –
28 | Cc1cc(Cn2nc(C(=O)NCc3cccs3)cc2-c2ccccc2)on1 | inactive: -4.36% | –

Quoted from the listing.
activity change, negative = inhibition with `CCc1ccc(-c2cc(C(=O)N/N=C/c3ccccn3)[nH]n2)cc1` is entered as inconclusive: 4.42%
activity change, negative = inhibition with `O=[N+]([O-])c1ccc(Sc2cccc3cccnc23)c([N+](=O)[O-])c1` is entered as inconclusive: -1.62%
activity change, negative = inhibition with `COc1ccc(-c2cc(NCCc3ccncc3)n3ncnc3n2)cc1` is entered as inactive: 1.74%
Potency with `COc1cccc(-n2cc(CNCc3c(C(=O)N(C)C)nc4ccc(Cl)cn34)cn2)c1` is entered as inconclusive: 1.58 µM [rising, full curve]

Carrying on.

Row | Compound | activity change, negative = inhibition | Potency
29 | COc1ccc(CNC(=O)Cn2cc(C(F)(F)F)ccc2=O)cc1 | inconclusive: 9.33% | –
30 | CCOC(=O)c1cnn(-c2ccccc2)c1NC(=O)CN1CCOCC1 | inconclusive: 4.6% | –
31 | CC(=O)n1cc(Nc2ccc([N+](=O)[O-])cc2)c2ccccc21 | inactive: -0.618% | –
32 | CC1=C(C(=O)Nc2ccccc2)C(c2cccc(Cl)c2)n2nc(SCC(=O)c3ccc(C)cc3)nc2N1 (stereo unspecified) | inactive: 4.65% | –
33 | O=C(c1ccc2c(c1)OCO2)C1CCCN(Cc2c(F)ccc(F)c2F)C1 (stereo unspecified) | inactive: -2.33% | –
34 | Cc1cccc(C(=O)NC2=NCCS2)c1 | inactive: 5.82% | –
35 | O=C1NC(=S)N/C1=C/c1ccc2c(c1)OCO2 | inconclusive: -7.36% | –
36 | c1ccc(Cn2c(CNc3nc4ccccc4n3CCN3CCOCC3)nc3ccccc32)cc1 | inconclusive: -11.5% | –
37 | COC(=O)C1=C(C)N(Cc2ccccc2)C(=NCc2ccccc2)N[C@H]1c1cccc(C(F)(F)F)c1 | inconclusive: -0.264% | –
38 | O=C(COc1ccccc1)Nc1nccs1 | inconclusive: -27.9% | –
39 | O=C(Nc1ccc2oc(-c3ccccc3)nc2c1)c1ccco1 | inconclusive: 13.6% | –
40 | O=C(CCN1CCC(c2cccs2)=N1)c1cccs1 | – | inconclusive: 35.5 µM [falling, single point]
41 | COc1ccc(NC(=O)c2cccc(N3C(=O)C4C5CCC(C5)C4C3=O)c2)cc1 (stereo unspecified) | – | inconclusive: 25.1 µM [falling, single point]
42 | Cc1cccc(OCC(=O)NC(=S)NNC(=O)c2ccncc2)c1 | inconclusive: -1.39% | –
43 | CCOC(=O)c1cc(-c2ccc(OC)cc2)n(CCC(=O)NC2CCCCC2)c1C | inactive: -1.45% | –
44 | COC(=O)c1c(NC(=O)C2CC2)sc2c1CCCC2 | inconclusive: 6.78% | –
45 | COc1ccc(N(C(=O)C(C)C)S(=O)(=O)c2ccc3ccccc3c2)cc1 | inactive: -0.352% | –
46 | CN1CCc2cc(Cl)c(O)cc2[C@@H](c2ccccc2)C1 | – | inconclusive: 25.1 µM [falling, partial curve, poor fit]
47 | CCN1C(=O)[C@H]2[C@@H](c3ccc(-c4ccc(Cl)c(Cl)c4)c(OC)c3)N[C@@](Cc3ccccc3)(C(=O)OC)[C@H]2C1=O | inactive: -10.3% | –
48 | Cn1c(N)c(C(=O)Nc2ccc(-c3ccccc3)cc2)sc1=S | inconclusive: 6.28% | –
49 | CN(C)c1ccc(/C=N/NC(=O)c2nnn(-c3nonc3N)c2COc2ccc(F)cc2)cc1 | inactive: 0.74% | –
50 | O=C(NCCCN1CCOCC1)c1cc(-c2ccc(F)cc2)no1 | inconclusive: -8.51% | –
51 | CCC1=NN(C(=O)Cc2ccc(OC)cc2)C(O)(C(F)(F)F)C1 (stereo unspecified) | inactive: -0.844% | –
52 | CCOC(=O)c1c(C)[nH]c(C(=O)OCC(=O)Nc2cc(C)ccc2OC)c1C | inactive: 2.47% | –
53 | O=c1cc(N2CCCCC2)c2ccccc2o1 | – | inconclusive: 31.6 µM [falling, single point]
54 | O=C(c1ccccc1)N1CCCc2ccccc21 | inactive: -3.71% | –
55 | Cc1nc(NC(N)=S)sc1C(=O)Nc1ccccc1 | – | inconclusive: 35.5 µM [falling, single point]
